Source: PMC12145424, “Structural insights into tRNA recognition of the human FTSJ1-THADA complex” (Communications Biology, 2025)

By UniProt entry, the sequences of proteins in these tests, tags left out. Where a name states a change or a piece, a line headed by the entry shows the natural chain unless it says otherwise.
UniProt Q6YHU6: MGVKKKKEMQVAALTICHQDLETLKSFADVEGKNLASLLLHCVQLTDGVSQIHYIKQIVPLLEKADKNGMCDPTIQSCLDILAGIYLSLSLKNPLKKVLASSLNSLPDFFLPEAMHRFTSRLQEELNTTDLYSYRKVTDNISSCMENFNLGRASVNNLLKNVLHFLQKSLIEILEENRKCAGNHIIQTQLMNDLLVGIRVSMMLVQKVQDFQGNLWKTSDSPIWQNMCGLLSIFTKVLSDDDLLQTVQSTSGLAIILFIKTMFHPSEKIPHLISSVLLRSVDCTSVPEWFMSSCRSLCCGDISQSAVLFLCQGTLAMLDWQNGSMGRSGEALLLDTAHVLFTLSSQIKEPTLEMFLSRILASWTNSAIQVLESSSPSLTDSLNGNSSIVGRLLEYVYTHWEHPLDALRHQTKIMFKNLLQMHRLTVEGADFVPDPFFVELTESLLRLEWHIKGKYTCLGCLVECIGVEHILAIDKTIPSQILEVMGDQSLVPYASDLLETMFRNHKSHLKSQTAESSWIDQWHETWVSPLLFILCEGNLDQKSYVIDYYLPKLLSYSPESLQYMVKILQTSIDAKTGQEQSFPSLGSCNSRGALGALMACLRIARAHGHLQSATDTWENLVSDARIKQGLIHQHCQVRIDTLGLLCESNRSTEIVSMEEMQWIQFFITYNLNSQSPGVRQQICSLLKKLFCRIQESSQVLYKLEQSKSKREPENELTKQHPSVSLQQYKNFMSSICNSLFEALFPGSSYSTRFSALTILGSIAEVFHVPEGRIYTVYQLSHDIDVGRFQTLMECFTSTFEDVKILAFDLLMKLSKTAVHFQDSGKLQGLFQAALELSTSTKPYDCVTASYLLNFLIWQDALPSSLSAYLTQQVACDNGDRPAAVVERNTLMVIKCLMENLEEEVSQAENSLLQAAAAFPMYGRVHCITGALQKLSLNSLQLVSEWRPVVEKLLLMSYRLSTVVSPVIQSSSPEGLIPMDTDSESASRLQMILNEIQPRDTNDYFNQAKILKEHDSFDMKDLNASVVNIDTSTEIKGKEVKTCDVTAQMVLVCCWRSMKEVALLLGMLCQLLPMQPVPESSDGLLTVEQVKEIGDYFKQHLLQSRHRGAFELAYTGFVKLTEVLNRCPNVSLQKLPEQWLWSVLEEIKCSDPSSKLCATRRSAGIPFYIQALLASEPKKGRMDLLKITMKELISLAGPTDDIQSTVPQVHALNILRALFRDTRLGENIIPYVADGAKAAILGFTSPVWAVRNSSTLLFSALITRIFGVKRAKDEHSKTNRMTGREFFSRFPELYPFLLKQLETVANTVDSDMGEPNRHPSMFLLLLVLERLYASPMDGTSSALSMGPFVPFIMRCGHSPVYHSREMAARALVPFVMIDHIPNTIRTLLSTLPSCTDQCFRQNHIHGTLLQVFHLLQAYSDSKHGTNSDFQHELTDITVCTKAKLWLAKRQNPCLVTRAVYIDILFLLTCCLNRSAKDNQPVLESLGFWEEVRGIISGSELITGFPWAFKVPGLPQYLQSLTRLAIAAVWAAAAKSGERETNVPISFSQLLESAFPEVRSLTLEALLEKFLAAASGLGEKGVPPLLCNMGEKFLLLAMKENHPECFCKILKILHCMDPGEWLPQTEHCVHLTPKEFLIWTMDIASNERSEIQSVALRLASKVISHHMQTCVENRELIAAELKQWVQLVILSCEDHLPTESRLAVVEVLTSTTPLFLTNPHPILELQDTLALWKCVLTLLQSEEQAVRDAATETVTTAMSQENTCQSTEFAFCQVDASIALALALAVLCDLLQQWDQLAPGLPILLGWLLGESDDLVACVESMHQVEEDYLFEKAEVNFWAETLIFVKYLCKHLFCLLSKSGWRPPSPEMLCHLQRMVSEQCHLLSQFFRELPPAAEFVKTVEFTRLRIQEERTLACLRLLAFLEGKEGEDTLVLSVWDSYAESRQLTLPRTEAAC

Key:
Assay in all cases: co-IP; 293FT cells transfected with FLAG-tagged THADA; lysate in 20 mM Tris-HCl pH 7.4, 150 mM NaCl, 1 mM EDTA, 1 mM EGTA, 0.01% Triton X-100; anti-FLAG M2 affinity gel; blot with anti-FLAG and anti-FTSJ1
[1] = target: FLAG-tagged THADA mutant at Arg199 (human) (UniProt Q6YHU6)
[2] = target: FLAG-tagged THADA mutant at Thr798 (human) (UniProt Q6YHU6)
[3] = target: FLAG-tagged THADA mutant at Gln680 (human) (UniProt Q6YHU6)
[4] = target: FLAG-tagged THADA mutant at Tyr843 (human) (UniProt Q6YHU6)

- binding [1]: binds
- binding [2]: binds
- binding [3]: binds
- binding [4]: binds
B1: Human FTSJ1 (FLAG-tagged, co-expressed with THADA) (enzyme)
chain: MGRTSKDKRDVYYRLAKENGWRARSAFKLLQLDKEFQLFQGVTRAVDLCAAPGSWSQVLSQKIGGQGSGHVVAVDLQAMAPLPGVVQIQGDITQLSTAKEIIQHFKGCPADLVVCDGAPDVTGLHDVDEYMQAQLLLAALNIATHVLKPGGCFVAKIFRGRDVTLLYSQLQVFFSSVLCAKPRSSRNSSIEAFAVCQGYDPPEGFIPDLSKPLLDHSYDPDFNQLDGPTRIIVPFVTCGDLSSYDSDRSYPLDLEGGSEYKYTPPTQPPISPPYQEACTLKRKGQLAKEIRPQDCPISRVDTFPQPLAAPQCHTLLAPEMEDNEMSCSP
notes: FTSJ1, human; gene PCR-amplified and cloned into a modified pcDNA3.4 vector; no TEV cleavage step is described in the purification; also called Trm7 (yeast name); not shown: FLAG, N-terminal, kept

No constants are given. Whether binding was seen depends on the method and setting. In cells and extracts the contact can be indirect. Binding can be weak; no strength is given.
